Measurements: patent US10775394B2, “Immunoassay for phenethylamines of the 2C and DO sub-families” (Randox Laboratories Limited, priority 2013, dated 2020)

Experiments:
[1] = test system: DO antibody 1 (IgG fraction of antiserum raised to DOB-BSA); assay: Competitive microtitre plate ELISA, DO antibody 1 (antiserum raised to DOB-BSA); assay type: binding
Method: The appropriate antibody coating dilution was determined using standard ELISA checkerboard techniques. The plate was incubated for 2 hours at 37° C., washed 4 times over 10 minutes with Tris buffered saline containing Tween 20 (TBST) and tapped dry. […] The appropriate dilution of conjugate was also determined using standard ELISA checkerboard techniques. The plate was incubated at 25° C. for 1 hour. Excess unbound conjugate was removed by washing 6 times over a 10-15 minute period with TBST and tapped dry. 125 μl of tetramethylbenzidine (TMB) substrate solution was added to each well of the plate that was then incubated for 20 minutes in the dark at room temperature. The reaction was terminated by addition of 125 μl 0.2 M H2SO4 to each well. The absorbance was measured at 450 nm using a microtitre plate reader.

[2] = test system: 2C antibody (IgG fraction of antiserum raised to 2C-B-BSA); assay: Competitive microtitre plate ELISA, 2C antibody (antiserum raised to 2C-B-BSA); assay type: binding
Method: The wells of an enhanced binding 96 well polystyrene microtitre plate were coated with IgG fraction of antiserum raised to 2C-B-BSA, diluted in 10 mM Tris, pH8.5 (125 μl/well). The appropriate antibody coating dilution was determined using standard ELISA checkerboard techniques. The plate was incubated overnight at 4° C., washed 4 times over 10 minutes with Tris buffered saline containing Tween 20 (TBST) and tapped dry. Standard solutions of 2CB were prepared in TBST at 0, 1.25, 2.5, 5, 10, 20, 40 & 80 ng/ml, and 50 μl of each was added to the appropriate wells. 75 μl of conjugate (Example 11) diluted in Tris buffer (pH 7.2) containing EDTA, D-mannitol, sucrose, thimerosal and BSA, was added to each of the wells. The appropriate dilution of conjugate was also determined using standard ELISA checkerboard techniques. The plate was incubated at 25° C. for 1 hour. Excess unbound conjugate was removed by washing 6 times over a 10-15 minute period with TBST and tapped dry. 125 μl of tetramethylbenzidine (TMB) substrate solution was added to each well of the plate that was then incubated for 20 minutes in the dark at room temperature. The reaction was terminated by addition of 125 μl 0.2 M H2SO4 to each well. The absorbance was measured at 450 nm using a microtitre plate reader. In order to determine the specificity of the competitive ELISAs, standard solutions of a range of structurally similar compounds were prepared in TBST. Using calibration curves generated from these compounds (0-80 ng/ml) percentage cross-reactivity was determined.

COc1cc(CC(C)N)c(OC)cc1Br (racemic) [DOB, 1-(4-bromo-2,5-dimethoxyphenyl)propan-2-amine]
Ave OD (A450) ([1]; DOB 0.625 ng/ml): 1.251
Ave OD (A450) ([1]; DOB 1.25 ng/ml): 1.126
Ave OD (A450) ([1]; DOB 2.5 ng/ml): 0.898
Ave OD (A450) ([1]; DOB 5 ng/ml): 0.672
Ave OD (A450) ([1]; DOB 10 ng/ml): 0.534
Ave OD (A450) ([1]; DOB 20 ng/ml): 0.340
Ave OD (A450) ([1]; DOB 40 ng/ml): 0.223

COc1cc(CCN)c(OC)cc1Br [Hapten 2C-B, 1-(4-bromo-2,5-dimethoxyphenyl)ethan-2-amine]
Ave OD (A450) ([2]; 2C-B 1.25 ng/ml): 1.958
Ave OD (A450) ([2]; 2C-B 2.5 ng/ml): 1.785
Ave OD (A450) ([2]; 2C-B 5 ng/ml): 1.561
Ave OD (A450) ([2]; 2C-B 10 ng/ml): 1.343
Ave OD (A450) ([2]; 2C-B 20 ng/ml): 1.207
Ave OD (A450) ([2]; 2C-B 40 ng/ml): 1.005
Ave OD (A450) ([2]; 2C-B 80 ng/ml): 0.858
